{"sequences": {"note": "Chains of the proteins cited; added tags and fusions are not shown. Lines headed by an entry give the natural chain unless they say otherwise; changes in a name come on top.", "UniProt P26599": "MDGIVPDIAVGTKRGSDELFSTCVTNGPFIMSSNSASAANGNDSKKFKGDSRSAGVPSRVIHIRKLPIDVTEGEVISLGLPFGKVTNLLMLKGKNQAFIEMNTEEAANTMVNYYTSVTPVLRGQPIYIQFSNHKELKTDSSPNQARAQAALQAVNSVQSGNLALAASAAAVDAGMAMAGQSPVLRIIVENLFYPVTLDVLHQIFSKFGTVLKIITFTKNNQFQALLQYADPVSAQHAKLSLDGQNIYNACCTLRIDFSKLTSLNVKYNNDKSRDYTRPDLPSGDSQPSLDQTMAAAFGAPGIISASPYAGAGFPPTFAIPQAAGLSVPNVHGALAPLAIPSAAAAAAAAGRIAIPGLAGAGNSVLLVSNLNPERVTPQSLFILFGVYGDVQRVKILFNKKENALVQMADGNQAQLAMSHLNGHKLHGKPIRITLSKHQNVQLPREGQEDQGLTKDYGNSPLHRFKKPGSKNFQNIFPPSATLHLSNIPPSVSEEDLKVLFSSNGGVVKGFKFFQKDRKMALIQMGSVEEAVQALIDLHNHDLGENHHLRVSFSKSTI", "UniProt Q9P2T1": "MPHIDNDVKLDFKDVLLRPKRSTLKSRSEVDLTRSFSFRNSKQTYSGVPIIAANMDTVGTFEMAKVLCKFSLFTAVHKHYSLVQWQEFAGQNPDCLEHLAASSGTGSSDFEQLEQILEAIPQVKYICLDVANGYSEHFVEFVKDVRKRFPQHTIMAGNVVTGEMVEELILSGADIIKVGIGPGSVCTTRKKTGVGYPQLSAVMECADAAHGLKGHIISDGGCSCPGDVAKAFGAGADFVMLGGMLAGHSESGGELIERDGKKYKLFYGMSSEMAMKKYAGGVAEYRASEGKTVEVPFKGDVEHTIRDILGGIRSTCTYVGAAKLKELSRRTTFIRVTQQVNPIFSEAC", "UniProt Q3LXA3": "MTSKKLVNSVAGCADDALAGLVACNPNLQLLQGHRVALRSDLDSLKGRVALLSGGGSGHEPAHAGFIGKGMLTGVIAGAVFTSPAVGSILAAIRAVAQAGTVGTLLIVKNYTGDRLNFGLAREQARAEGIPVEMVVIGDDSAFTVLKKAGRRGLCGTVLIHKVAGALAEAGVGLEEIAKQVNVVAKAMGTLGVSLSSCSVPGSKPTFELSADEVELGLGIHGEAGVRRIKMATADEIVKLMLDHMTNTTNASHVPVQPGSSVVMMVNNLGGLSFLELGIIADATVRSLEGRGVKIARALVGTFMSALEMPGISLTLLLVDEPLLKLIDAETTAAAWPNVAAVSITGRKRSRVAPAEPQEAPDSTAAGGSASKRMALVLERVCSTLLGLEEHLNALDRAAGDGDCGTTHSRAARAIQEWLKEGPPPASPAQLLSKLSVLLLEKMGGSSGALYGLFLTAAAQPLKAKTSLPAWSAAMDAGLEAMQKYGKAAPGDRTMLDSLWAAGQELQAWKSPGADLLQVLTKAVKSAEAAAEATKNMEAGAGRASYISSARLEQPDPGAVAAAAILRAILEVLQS", "UniProt Q92504": "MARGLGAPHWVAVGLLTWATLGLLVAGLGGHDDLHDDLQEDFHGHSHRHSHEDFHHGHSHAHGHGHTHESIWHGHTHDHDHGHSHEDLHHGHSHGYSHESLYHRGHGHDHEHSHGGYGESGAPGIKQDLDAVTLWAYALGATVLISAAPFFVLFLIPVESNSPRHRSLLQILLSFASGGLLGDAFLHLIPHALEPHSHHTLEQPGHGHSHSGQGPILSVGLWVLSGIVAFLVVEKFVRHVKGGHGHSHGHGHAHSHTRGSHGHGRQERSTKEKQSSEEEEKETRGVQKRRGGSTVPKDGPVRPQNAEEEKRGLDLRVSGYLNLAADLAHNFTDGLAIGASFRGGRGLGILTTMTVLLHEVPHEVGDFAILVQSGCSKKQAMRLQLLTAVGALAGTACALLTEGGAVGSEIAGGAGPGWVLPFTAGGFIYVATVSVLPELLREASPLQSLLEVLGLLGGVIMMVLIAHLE", "UniProt P47974": "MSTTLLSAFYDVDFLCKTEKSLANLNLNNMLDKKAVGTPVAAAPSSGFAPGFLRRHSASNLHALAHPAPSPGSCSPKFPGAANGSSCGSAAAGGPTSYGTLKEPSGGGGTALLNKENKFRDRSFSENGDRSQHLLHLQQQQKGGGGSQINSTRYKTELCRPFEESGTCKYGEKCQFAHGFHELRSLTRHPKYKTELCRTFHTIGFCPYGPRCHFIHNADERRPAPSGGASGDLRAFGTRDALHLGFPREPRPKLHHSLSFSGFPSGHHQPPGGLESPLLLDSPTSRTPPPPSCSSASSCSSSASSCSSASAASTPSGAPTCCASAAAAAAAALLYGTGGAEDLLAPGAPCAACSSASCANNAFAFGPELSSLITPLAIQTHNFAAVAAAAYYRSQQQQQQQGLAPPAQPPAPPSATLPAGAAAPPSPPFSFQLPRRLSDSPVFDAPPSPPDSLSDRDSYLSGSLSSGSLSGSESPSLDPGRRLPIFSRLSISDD"}, "source": "the supplement of paper PMC6411743", "compound": "Nc1nc2c(ncn2[C@@H]2O[C@H](COP(=O)(O)OP(=O)(O)OP(=O)(O)O)[C@@H](O)[C@H]2O)c(=O)[nH]1 [guanosine triphosphate]", "experiment": "NP40-soluble protein abundance relative to vehicle (solubility fold change) (ratio); higher = more soluble protein in presence of GTP", "protocol": "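Solubility proteome profiling in Jurkat crude lysate. Lysate was treated with Mg-GTP (0.1-10 mM) for 10 min at room temperature and 3 min at 37 °C, then solubilised with 0.8% NP40 and benzonase, followed by ultracentrifugation. Proteins were quantified by TMT10 LC-MS/MS; the value is the NP40-soluble abundance relative to the NP40-processed vehicle, from 3 independent experiments.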", "note": "± gives the standard deviation of the averaged measurements. The list shows a part of the results.", "data": [{"target": "A0A087WUW5|A0A0U1RRM4|A6NLN1 and related entries (UniProt P26599)", "values": [{"measurement": "NP40-soluble protein abundance", "setting": "concentration: 0.1mM", "value": "0.954 ± 0.078"}, {"measurement": "NP40-soluble protein abundance", "setting": "concentration: 0.5mM", "value": "0.949 ± 0.079"}, {"measurement": "NP40-soluble protein abundance", "setting": "concentration: 1mM", "value": "0.933 ± 0.072"}, {"measurement": "NP40-soluble protein abundance", "setting": "concentration: 2mM", "value": "0.879 ± 0.078"}, {"measurement": "NP40-soluble protein abundance", "setting": "concentration: 4mM", "value": "0.887 ± 0.073"}, {"measurement": "NP40-soluble protein abundance", "setting": "concentration: 6mM", "value": "0.894 ± 0.068"}, {"measurement": "NP40-soluble protein abundance", "setting": "concentration: 8mM", "value": "0.901 ± 0.073"}, {"measurement": "NP40-soluble protein abundance", "setting": "concentration: 10mM", "value": "0.896 ± 0.074"}]}, {"target": "A0A087WWM4|F8WAN9 and related entries (UniProt Q9P2T1)", "values": [{"measurement": "NP40-soluble protein abundance", "setting": "concentration: 0.1mM", "value": "1.06 ± 0.058"}, {"measurement": "NP40-soluble protein abundance", "setting": "concentration: 0.5mM", "value": "1.06 ± 0.08"}, {"measurement": "NP40-soluble protein abundance", "setting": "concentration: 1mM", "value": "1 ± 0.077"}, {"measurement": "NP40-soluble protein abundance", "setting": "concentration: 2mM", "value": "1 ± 0.053"}, {"measurement": "NP40-soluble protein abundance", "setting": "concentration: 4mM", "value": "0.994 ± 0.051"}, {"measurement": "NP40-soluble protein abundance", "setting": "concentration: 6mM", "value": "0.978 ± 0.068"}, {"measurement": "NP40-soluble protein abundance", "setting": "concentration: 8mM", "value": "1.01 ± 0.071"}, {"measurement": "NP40-soluble protein abundance", "setting": "concentration: 10mM", "value": "0.985 ± 0.051"}]}, {"target": "A0A087WUL0|Q3LXA3 (UniProt Q3LXA3)", "values": [{"measurement": "NP40-soluble protein abundance", "setting": "concentration: 0.1mM", "value": "0.988 ± 0.11"}, {"measurement": "NP40-soluble protein abundance", "setting": "concentration: 0.5mM", "value": "0.963 ± 0.11"}, {"measurement": "NP40-soluble protein abundance", "setting": "concentration: 1mM", "value": "0.978 ± 0.14"}, {"measurement": "NP40-soluble protein abundance", "setting": "concentration: 2mM", "value": "0.928 ± 0.12"}, {"measurement": "NP40-soluble protein abundance", "setting": "concentration: 4mM", "value": "0.948 ± 0.11"}, {"measurement": "NP40-soluble protein abundance", "setting": "concentration: 6mM", "value": "0.96 ± 0.16"}, {"measurement": "NP40-soluble protein abundance", "setting": "concentration: 8mM", "value": "0.96 ± 0.1"}, {"measurement": "NP40-soluble protein abundance", "setting": "concentration: 10mM", "value": "0.951 ± 0.097"}]}, {"target": "A0A087WTX2|Q92504 and related entries (UniProt Q92504)", "values": [{"measurement": "NP40-soluble protein abundance", "setting": "concentration: 0.1mM", "value": "0.973 ± 0.023"}, {"measurement": "NP40-soluble protein abundance", "setting": "concentration: 0.5mM", "value": "1.04 ± 0.059"}, {"measurement": "NP40-soluble protein abundance", "setting": "concentration: 1mM", "value": "0.991 ± 0.045"}, {"measurement": "NP40-soluble protein abundance", "setting": "concentration: 2mM", "value": "0.983 ± 0.044"}, {"measurement": "NP40-soluble protein abundance", "setting": "concentration: 4mM", "value": "0.996 ± 0.018"}, {"measurement": "NP40-soluble protein abundance", "setting": "concentration: 6mM", "value": "0.991 ± 0.063"}, {"measurement": "NP40-soluble protein abundance", "setting": "concentration: 8mM", "value": "0.99 ± 0.01"}, {"measurement": "NP40-soluble protein abundance", "setting": "concentration: 10mM", "value": "0.996 ± 0.032"}]}, {"target": "A0A087WUU9|P47974 (UniProt P47974)", "values": [{"measurement": "NP40-soluble protein abundance", "setting": "concentration: 0.1mM", "value": "1.06 ± 0.07"}, {"measurement": "NP40-soluble protein abundance", "setting": "concentration: 0.5mM", "value": "1.02 ± 0.026"}, {"measurement": "NP40-soluble protein abundance", "setting": "concentration: 1mM", "value": "1.09 ± 0.071"}, {"measurement": "NP40-soluble protein abundance", "setting": "concentration: 2mM", "value": "1.12 ± 0.05"}, {"measurement": "NP40-soluble protein abundance", "setting": "concentration: 4mM", "value": "1.06 ± 0.046"}, {"measurement": "NP40-soluble protein abundance", "setting": "concentration: 6mM", "value": "1.03 ± 0.033"}, {"measurement": "NP40-soluble protein abundance", "setting": "concentration: 8mM", "value": "1.04 ± 0.027"}, {"measurement": "NP40-soluble protein abundance", "setting": "concentration: 10mM", "value": "1.06 ± 0.028"}]}]}
